# Measured values published in article PMC3560227.
# The chains behind the UniProt entries cited, without tags or fusion partners. Where a name states a change or a piece, a line headed by the entry shows the natural chain unless it says otherwise.
# UniProt Q3SWW9: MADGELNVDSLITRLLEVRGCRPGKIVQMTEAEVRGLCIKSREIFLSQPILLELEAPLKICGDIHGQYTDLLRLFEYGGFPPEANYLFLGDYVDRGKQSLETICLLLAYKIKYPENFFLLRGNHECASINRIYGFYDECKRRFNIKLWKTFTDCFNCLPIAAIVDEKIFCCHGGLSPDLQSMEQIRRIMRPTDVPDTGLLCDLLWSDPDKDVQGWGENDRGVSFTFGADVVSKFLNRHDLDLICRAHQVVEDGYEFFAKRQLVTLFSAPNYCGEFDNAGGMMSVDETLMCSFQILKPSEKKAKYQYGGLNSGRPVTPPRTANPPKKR
# UniProt P62140: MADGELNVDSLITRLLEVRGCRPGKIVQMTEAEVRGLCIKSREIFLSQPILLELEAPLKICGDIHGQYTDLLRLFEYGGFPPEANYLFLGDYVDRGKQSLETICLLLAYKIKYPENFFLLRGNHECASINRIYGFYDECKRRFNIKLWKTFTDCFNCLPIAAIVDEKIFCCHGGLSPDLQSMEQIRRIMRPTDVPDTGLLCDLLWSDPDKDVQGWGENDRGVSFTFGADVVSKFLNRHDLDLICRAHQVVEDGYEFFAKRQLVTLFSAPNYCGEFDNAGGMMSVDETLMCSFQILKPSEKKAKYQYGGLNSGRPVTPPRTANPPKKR
# These are yes or no findings as the source states them, for the method shown. Binding seen in cells or lysates may run through a third protein. Some entries that bind do so weakly or less than the wild type. For part of these data: Sequences can lack the tags named with a protein.
# Legend:
# [1] = target: T1, TIMAP (TGF-β inhibited membrane-associated protein), endogenous in BPAEC (bovine (endogenous in BPAEC)) (UniProt Q95N27); assay: co-IP; endogenous RACK1 or TIMAP immunoprecipitated from BPAEC lysate (20 mM Tris HCl pH 7.4, 150 mM NaCl, 2 mM EDTA, 2 mM sodium vanadate, 1% Nonidet P-40), protein G Sepharose, Western blot; in Figure 3B cells untreated or treated with forskolin or PMA
# T1 sequence: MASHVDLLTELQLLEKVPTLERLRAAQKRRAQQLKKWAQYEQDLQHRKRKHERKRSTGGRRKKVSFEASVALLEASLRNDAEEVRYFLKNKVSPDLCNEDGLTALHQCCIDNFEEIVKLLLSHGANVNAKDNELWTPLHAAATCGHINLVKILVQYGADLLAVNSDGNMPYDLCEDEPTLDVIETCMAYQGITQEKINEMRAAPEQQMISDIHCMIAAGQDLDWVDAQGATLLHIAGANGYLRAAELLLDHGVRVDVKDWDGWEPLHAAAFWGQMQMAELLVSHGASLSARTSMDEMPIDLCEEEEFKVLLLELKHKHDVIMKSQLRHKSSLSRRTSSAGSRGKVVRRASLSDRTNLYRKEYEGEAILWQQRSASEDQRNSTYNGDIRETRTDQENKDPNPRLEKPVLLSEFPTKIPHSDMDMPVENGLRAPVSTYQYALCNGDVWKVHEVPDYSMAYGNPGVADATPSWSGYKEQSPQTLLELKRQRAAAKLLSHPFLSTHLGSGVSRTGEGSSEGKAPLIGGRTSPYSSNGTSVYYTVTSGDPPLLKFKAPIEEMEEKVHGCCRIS
# [2] = target: T2, GFP-TIMAP wt (wild type TIMAP/pEGFP) (not stated (NM_015568 is a human entry, from memory)) (UniProt Q96T49); assay: co-IP; GFP or endogenous RACK1 immunoprecipitated from lysate of HeLa cells transfected with GFP-TIMAP wt; probed for RACK1, GFP and PP1cδ
# T2 sequence: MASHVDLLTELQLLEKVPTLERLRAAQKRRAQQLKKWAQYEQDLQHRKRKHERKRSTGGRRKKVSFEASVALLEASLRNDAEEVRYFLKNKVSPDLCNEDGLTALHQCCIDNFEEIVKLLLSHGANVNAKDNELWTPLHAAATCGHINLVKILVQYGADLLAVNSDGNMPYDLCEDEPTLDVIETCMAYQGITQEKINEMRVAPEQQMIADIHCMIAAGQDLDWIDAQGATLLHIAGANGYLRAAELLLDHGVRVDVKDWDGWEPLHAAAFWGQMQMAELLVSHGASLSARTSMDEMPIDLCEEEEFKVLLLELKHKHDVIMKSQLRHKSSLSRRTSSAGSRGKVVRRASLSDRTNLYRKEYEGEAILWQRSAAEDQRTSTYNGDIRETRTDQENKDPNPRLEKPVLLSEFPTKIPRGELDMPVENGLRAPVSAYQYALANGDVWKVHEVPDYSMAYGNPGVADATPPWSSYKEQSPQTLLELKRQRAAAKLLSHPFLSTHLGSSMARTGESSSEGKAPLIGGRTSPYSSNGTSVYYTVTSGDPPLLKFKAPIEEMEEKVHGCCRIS
# [3] = target: T3, GFP-TIMAP ΔPP1c (truncated TIMAP/pEGFP) (not stated (NM_015568 is a human entry, from memory)) (UniProt Q96T49); assay: co-IP; GFP or endogenous RACK1 immunoprecipitated from lysate of HeLa cells transfected with empty pEGFP or with GFP-TIMAP ΔPP1c; probed for RACK1, GFP and PP1cδ
# T3 sequence: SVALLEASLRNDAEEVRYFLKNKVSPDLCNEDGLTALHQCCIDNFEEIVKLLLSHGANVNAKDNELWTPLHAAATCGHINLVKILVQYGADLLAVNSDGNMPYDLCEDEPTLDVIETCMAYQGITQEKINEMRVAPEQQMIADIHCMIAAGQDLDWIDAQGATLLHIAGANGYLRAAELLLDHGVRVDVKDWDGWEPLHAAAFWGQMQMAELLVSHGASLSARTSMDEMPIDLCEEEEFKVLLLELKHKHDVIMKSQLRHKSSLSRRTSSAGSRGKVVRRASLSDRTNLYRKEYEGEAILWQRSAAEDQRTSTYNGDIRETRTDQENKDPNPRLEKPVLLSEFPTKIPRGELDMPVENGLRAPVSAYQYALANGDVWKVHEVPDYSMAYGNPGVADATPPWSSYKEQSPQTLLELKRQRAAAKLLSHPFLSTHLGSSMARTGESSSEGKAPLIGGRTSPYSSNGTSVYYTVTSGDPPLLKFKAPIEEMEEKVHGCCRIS
Substance,binding [1],binding [2],binding [3]
"PP1cδ (protein phosphatase 1 catalytic subunit δ), endogenous in BPAEC (from UniProt Q3SWW9 1-327) (enzyme)",binds,–,–
"PP1cδ, endogenous in human cells (HeLa) (from UniProt P62140 1-327) (enzyme)",–,binds,no binding
